Values from PubChem BioAssay AID743454 (Peter MacCallum Cancer Centre, 2014).

- Screen: 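Search for knock-downs that restore vorinostat killing in resistant colon cancer cells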 (primary screen)
- Cell system: human HCT116-VR colon cancer cells, selected for vorinostat resistance
- Knock-down reagent: siRNA pool against human genes, 40 nM siRNA pool
- Duration: vorinostat for 24 h, read-out about 72 h after transfection
- Challenge: vorinostat at 2.5 µM final
- Detection: 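Cell viability by CellTiter-Fluor and caspase 3/7 activity by luminescence, each scaled to mock wells per plate, duplicates averaged, then robust z-scored over all plates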
- Reading the numbers: viability robust z-score: higher = more viable cells than screen typical; caspase robust z-score: higher = more caspase 3/7 activity than screen typical
- Call rule: 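a knock-down is a hit when classed RV1 or RV2 for lowered viability, or CA1 or CA2 for caspase activation; those lethal without drug were dropped; hits were retested singly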
The whole screen tested about 18,000 reagents; this is an unselected part. 450 of them (2.5%) count as active. 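Single biological run; no consistent viability z cut-off exists, so the class columns, not z-scores, define the calls.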 Entries without a mark were called inactive. Reagents against one gene are numbered here.

gene | reagent | viability hit class | caspase hit class | viability robust z-score | caspase robust z-score
STX17 (GeneID 55014) | 1 | no change | no change | 0.26 | 1.45
GAR1 (GeneID 54433) | 1 | no change | no change | -1.52 | -0.44
RNF128 (GeneID 79589) | 1 | no change (active) | CA2 (caspase activation) | -1.6 | 12.1
L3MBTL4 (GeneID 91133) | 1 | no change | no change | 0.31 | -1.04
LRRC47 (GeneID 57470) | 1 | no change | no change | -0.16 | 3.93
TAF15 (GeneID 8148) | 1 | no change | no change | 0.48 | 0.03
OR10H4 (GeneID 126541) | 1 | no change | no change | -0.54 | 1.04
RAMP2 (GeneID 10266) | 1 | no change | no change | 0.88 | 0.35
KDM5B (GeneID 10765) | 1 | no change | no change | 1.14 | 0.03
ACY3 (GeneID 91703) | 1 | no change | no change | 0.13 | 2.77
ADPGK (GeneID 83440) | 1 | no change | no change | 0.46 | -0.11
DAAM1 (GeneID 23002) | 1 | no change | no change | -0.36 | 2.34
ELL2 (GeneID 22936) | 1 | no change | no change | 0.86 | -0.54
MAPK4 (GeneID 5596) | 1 | no change | no change | -0.72 | 2.35
CPA2 (GeneID 1358) | 1 | no change | no change | 0.72 | 0.01
MEPCE (GeneID 56257) | 1 | no change | no change | -2.6 | -0.77
PLVAP (GeneID 83483) | 1 | RV2 (reduced viability) (active) | no change | -2.91 | 0.5
CHI3L1 (GeneID 1116) | 1 | no change | no change | -0.19 | -0.84
CD1D (GeneID 912) | 1 | no change | no change | -0.64 | -0.54
FBXL2 (GeneID 25827) | 1 | no change | no change | -1.71 | 2.5
ACOT12 (GeneID 134526) | 1 | no change | no change | -0.22 | -0.88
PRDM6 (GeneID 93166) | 1 | no change | no change | 1.51 | -0.23
CSAG2 (GeneID 102723547) | 1 | no change | no change | -0.76 | 1.26
CSAG2 (GeneID 102723547) | 2 | no change | no change | -0.28 | 2.28
AOC3 (GeneID 8639) | 1 | no change | no change | -0.3 | 2.88
ACSM5 (GeneID 54988) | 1 | no change | no change | 1.05 | -0.34
SLC3A1 (GeneID 6519) | 1 | no change | no change | 1.02 | -0.86
RNGTT (GeneID 8732) | 1 | no change | no change | -0.49 | -0.88
MS4A4A (GeneID 51338) | 1 | no change | no change | -0.66 | -0.66
ERMAP (GeneID 114625) | 1 | no change | no change | -0.7 | -0.42
ETV4 (GeneID 2118) | 1 | no change | no change | 0.38 | -0.94
SMG5 (GeneID 23381) | 1 | no change | no change | 0.92 | -0.65
GRAMD1A (GeneID 57655) | 1 | no change | no change | -0.26 | 0.59
ZNF169 (GeneID 169841) | 1 | no change | no change | 0.78 | -0.8
CLEC18A (GeneID 348174) | 1 | no change | no change | 0.08 | 1.12
GEMIN8 (GeneID 54960) | 1 | no change | no change | -0.26 | -0.62
H4C14 (GeneID 8370) | 1 | no change | no change | 0.23 | -1.05
CRYBG3 (GeneID 131544) | 1 | no change | no change | -1.38 | -0.19
REPS1 (GeneID 85021) | 1 | no change | no change | 0.49 | 0.69
GPR173 (GeneID 54328) | 1 | no change | no change | -0.15 | 1.01
ALOX5 (GeneID 240) | 1 | no change | no change | 0.18 | -0.55
ZNF596 (GeneID 169270) | 1 | no change | no change | 0.98 | -0.48
GMNN (GeneID 51053) | 1 | no change | no change | -0.81 | 2.54
TATDN1 (GeneID 83940) | 1 | no change | no change | -0.3 | 0.6
ASB2 (GeneID 51676) | 1 | no change | no change | -0.06 | 0.2
ZNF418 (GeneID 147686) | 1 | no change | no change | -0.02 | 0.5
SCARA3 (GeneID 51435) | 1 | no change | no change | -0.5 | -0.96
MTCL3 (GeneID 387104) | 1 | no change | no change | -0.36 | -0.53
ARHGEF3 (GeneID 50650) | 1 | no change | no change | -0.22 | -0.68
OR2U1P (GeneID 26695) | 1 | no change | no change | 0.06 | -0.02
OR9K2 (GeneID 441639) | 1 | no change | no change | -0.81 | -0.4
ANKRD29 (GeneID 147463) | 1 | no change | no change | 0.46 | -0.14
INO80B (GeneID 83444) | 1 | no change | no change | -0.55 | -0.1
PGLYRP1 (GeneID 8993) | 1 | no change | no change | 0.63 | -0.59
SYT4 (GeneID 6860) | 1 | no change | no change | -1.04 | -0.34
EXOC3L4 (GeneID 91828) | 1 | no change | no change | 0.58 | -0.26
UPF2 (GeneID 26019) | 1 | no change | no change | 0.48 | 1.02

Copied from the list:
CPA2 (GeneID 1358), caspase hit class → no change
L3MBTL4 (GeneID 91133), caspase hit class: no change
Result of OR2U1P (GeneID 26695) under “viability hit class”: no change
For “viability hit class”, LRRC47 (GeneID 57470) reads no change
